Measured values reported in patent publication US20090099238A1, “USE OF A PPAR-ALPHA AGONIST TO TREAT PATIENTS SUFFERING FROM WEIGHT GAIN ASSOCIATED WITH A PPAR-GAMMA AGONIST TREATMENT” (priority 2003, published 2009).
Read-outs that look alike come from different tables or passages of the source. At least one structure is not confirmed: it was looked up by name or label, or the drawing left a doubt.

How the values were obtained:
[1] = fatty Zucker rats; cited from earlier work
[2] = db/db mice, cited from earlier work
[3] = Glycemia in obese Zucker rats under fenofibrate, rosiglitazone or co-administration (Example 1); type: in vivo
Description: (§1) Male homozygous Zucker rats of 9 to 11 weeks of age and their lean controls were received from Iffa-Credo (France). They were put into individual cages in a temperature-, humidity- and light-controlled room (21-23° C., 12-12 h light-dark cycle). […] After acclimatization, they were randomized into groups of 10, based on body weight.
(§2) The experimental groups were: Group 1=lean rats, untreated; Group 2=obese rats, treated with the vehicle p.o., twice daily (at 8 a.m. and 8 p.m.); Group 3=obese rats, treated with Fenofibrate, 100 mg/kg, p.o., twice daily (at 8 a.m. and 8 p.m.); Group 4=obese rats, treated with Rosiglitazone. 0.3 mg/kg, p.o., twice daily (at 8 a.m. and 8 p.m.); Group 5=obese rats, treated with Rosiglitazone, 3.0 mg/kg., p.o., twice daily (at 8 a.m. and 8 p.m.); Group 6=obese rats, treated with Fenofibrate, 100 mg/kg and Rosiglitazone, 0.3 mg/kg, p.o., twice daily (at 8 a.m. and 8 p.m.); Group 7=obese rats, treated with Fenofibrate, 100 mg/kg and Rosiglitazone, 3.0 mg/kg, p.o., twice daily (at 8 a.m. and 8 p.m.).
(§3) The following parameters were monitored: glycemia (mg/dl) and body weight gain (g).

[4] = Body weight (gain) in obese Zucker rats under fenofibrate, rosiglitazone or co-administration (Example 1); type: in vivo; settings: rosiglitazone alone 0.3 and 3.0 mg/kg, or co-administration with fenofibrate 100 mg/kg
Description: as §1, §2, §3

SMILES	body weight gain (result in words) [1]	expression of PPARα responsive genes [1]	serum triglycerides (result in words) [1]	expression of PPARα responsive genes [2]	reduction of body weight gain ([2]; non-significant) [%]	glycemia control (result in words) ([3]; 0.3 mg/kg rosiglitazone alone, between day 41 and day 69)	glycemia control (result in words) ([3]; 3.0 mg/kg rosiglitazone alone)	adipose tissue aP2 mRNA [1]	liver acyl CoA oxidase mRNA [1]	body weight gain (result in words) [4]	adipose tissue aP2 mRNA [2]	liver acyl CoA oxidase mRNA [2]	increase of body weight gain ([2]; significant) [%]
CC(C)OC(=O)C(C)(C)Oc1ccc(C(=O)c2ccc(Cl)cc2)cc1 [Fenofibrate, fenofibrate]	decreased body weight gain	faithfully modified the expression of PPARα responsive genes	lowered serum triglycerides	faithfully modified the expression of PPARα responsive genes	10								
CN(CCOc1ccc(CC2SC(=O)NC2=O)cc1)c1ccccn1 (stereo not drawn) [Rosiglitazone, rosiglitazone]	markedly increased body weight gain		lowered serum triglycerides			glycemia was not controlled	euglycemia was attained	increased adipose tissue aP2 mRNA in both models	not in fatty Zucker rats	dose-dependent increase in body weight gain	increased adipose tissue aP2 mRNA in both models	increasing liver acyl CoA oxidase mRNA	22
